# Results of single-concentration screens

The chains behind the UniProt entries cited, without tags or fusion partners. Residues count along the entry.
UniProt Q4DA54, 1-478: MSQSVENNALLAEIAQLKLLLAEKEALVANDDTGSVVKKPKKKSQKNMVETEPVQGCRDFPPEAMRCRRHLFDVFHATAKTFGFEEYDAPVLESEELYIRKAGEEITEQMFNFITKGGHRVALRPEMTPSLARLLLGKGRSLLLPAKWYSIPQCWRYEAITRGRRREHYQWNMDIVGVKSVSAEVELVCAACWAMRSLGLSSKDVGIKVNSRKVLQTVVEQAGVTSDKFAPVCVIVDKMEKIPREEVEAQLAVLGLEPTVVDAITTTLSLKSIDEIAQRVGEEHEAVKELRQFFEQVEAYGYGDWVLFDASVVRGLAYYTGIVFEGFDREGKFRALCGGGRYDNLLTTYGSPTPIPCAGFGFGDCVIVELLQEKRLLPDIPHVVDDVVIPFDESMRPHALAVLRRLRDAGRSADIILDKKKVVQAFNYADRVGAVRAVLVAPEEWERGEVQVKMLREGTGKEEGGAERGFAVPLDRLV
UniProt P9WFT3, whole entry: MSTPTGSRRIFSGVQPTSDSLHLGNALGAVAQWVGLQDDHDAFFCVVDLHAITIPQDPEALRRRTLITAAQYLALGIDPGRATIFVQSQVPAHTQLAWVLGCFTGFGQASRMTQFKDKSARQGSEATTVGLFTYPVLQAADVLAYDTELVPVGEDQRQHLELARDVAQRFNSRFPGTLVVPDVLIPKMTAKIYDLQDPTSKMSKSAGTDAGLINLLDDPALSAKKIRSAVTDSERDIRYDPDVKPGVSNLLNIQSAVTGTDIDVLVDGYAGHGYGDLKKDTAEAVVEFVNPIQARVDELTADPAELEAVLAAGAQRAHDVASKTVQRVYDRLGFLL
UniProt I6X8D2, whole entry: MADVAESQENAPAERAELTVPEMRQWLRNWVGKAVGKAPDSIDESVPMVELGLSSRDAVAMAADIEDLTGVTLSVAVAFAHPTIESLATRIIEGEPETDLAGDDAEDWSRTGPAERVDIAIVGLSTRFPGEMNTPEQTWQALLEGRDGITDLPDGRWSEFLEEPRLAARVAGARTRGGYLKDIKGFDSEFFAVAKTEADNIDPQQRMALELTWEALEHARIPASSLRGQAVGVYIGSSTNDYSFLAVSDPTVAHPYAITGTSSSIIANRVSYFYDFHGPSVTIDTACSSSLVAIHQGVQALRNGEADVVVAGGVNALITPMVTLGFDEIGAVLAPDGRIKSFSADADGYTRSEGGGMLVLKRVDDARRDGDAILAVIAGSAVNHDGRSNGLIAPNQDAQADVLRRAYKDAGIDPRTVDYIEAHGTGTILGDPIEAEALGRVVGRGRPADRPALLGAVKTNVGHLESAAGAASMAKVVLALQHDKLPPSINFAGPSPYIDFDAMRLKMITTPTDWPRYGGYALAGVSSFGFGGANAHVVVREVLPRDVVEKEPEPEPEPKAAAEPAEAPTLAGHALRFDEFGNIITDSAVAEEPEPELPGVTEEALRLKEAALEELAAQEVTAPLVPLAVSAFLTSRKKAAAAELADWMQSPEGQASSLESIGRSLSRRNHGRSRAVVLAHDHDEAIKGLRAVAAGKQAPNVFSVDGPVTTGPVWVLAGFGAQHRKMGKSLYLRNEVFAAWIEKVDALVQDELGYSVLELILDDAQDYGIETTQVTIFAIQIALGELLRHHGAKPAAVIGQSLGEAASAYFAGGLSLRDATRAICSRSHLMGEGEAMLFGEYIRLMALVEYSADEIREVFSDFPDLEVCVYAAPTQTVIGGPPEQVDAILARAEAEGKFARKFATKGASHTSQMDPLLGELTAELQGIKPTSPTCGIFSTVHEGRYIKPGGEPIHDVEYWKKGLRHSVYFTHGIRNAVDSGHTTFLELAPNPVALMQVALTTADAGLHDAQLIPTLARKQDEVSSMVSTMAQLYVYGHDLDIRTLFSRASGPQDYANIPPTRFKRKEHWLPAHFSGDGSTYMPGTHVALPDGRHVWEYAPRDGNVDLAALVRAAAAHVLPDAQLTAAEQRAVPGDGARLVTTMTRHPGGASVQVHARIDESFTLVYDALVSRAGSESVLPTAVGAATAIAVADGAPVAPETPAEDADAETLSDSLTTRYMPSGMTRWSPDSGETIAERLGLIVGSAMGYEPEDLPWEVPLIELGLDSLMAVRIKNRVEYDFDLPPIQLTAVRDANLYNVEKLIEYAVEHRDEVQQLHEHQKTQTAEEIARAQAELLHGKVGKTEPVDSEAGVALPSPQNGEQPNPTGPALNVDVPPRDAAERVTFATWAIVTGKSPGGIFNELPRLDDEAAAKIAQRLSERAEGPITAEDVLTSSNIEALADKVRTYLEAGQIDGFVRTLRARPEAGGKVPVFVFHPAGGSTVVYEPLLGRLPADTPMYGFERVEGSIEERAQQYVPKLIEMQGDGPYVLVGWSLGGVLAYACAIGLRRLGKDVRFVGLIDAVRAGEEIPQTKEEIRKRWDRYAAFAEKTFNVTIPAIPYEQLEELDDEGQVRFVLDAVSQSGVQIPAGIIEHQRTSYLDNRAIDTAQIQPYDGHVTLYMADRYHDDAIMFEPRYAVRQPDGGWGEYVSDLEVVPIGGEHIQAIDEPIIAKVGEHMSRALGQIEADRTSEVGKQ
UniProt Q8IDJ8, 1-583: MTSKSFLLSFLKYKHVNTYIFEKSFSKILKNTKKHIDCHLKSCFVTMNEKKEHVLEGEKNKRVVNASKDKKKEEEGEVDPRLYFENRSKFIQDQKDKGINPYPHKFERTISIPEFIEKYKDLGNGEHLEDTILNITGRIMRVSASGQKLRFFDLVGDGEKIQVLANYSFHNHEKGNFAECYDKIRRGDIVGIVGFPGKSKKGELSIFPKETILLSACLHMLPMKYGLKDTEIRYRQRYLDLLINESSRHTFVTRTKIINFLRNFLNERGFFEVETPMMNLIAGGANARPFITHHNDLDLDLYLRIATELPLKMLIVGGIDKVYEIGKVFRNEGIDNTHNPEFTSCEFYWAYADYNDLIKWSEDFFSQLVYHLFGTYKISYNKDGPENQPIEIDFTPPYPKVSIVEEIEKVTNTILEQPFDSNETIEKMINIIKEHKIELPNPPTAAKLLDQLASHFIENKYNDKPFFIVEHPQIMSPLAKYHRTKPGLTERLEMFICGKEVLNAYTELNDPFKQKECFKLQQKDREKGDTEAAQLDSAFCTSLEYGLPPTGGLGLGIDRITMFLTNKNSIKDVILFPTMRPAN

Source: ChEMBL document CHEMBL3988442, “University of Dundee, Small-Polar-MMV Screening Library” (2021).

A: 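Enzyme assay of histidyl-tRNA synthetase; the read-out is not stated. Target: Histidine-tRNA ligase, Trypanosoma cruzi CL Brener (UniProt Q4DA54). Tested at 30 µM. Direction is inferred from retests: higher values go with stronger inhibition. About 69,000 compounds were tested under these conditions; 0.045% (about 31) showed 50% or more at least once.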
B: 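Tryptophan-tRNA ligase, Mycobacterium tuberculosis (UniProt P9WFT3). Enzyme assay of tryptophanyl-tRNA synthetase; the read-out is not stated. Concentration: 10 µM. Higher most likely means stronger inhibition; the record gives no direction and few retests gave an IC50. Size under these conditions: about 65,000 compounds, about 64 of them at 50% or above in at least one test.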
C: 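Enzyme assay of the thioesterase domain of polyketide synthase 13; the read-out is not stated. Target: Polyketide synthase Pks13, Mycobacterium tuberculosis (UniProt I6X8D2). Compounds at 30 µM. The record gives no direction; the compounds picked for IC50 retests had high values, so higher reads as stronger inhibition. About 67,000 compounds were tested under these conditions; 0.46% (about 300) showed 50% or more at least once.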
D: 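Enzyme assay of the cytosolic lysyl-tRNA synthetase in 384-well plates, read by luminescence. Target: Lysine-tRNA ligase, Plasmodium falciparum 3D7 (UniProt Q8IDJ8). Compounds at 30 µM. Higher reads as stronger inhibition, judged from the few compounds that gave an IC50. Of about 69,000 compounds tested this way, about 49 (0.071%) reached 50% or more in at least one test.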
E: 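Assay of Toxoplasma gondii numbers, read through their beta-galactosidase reporter with a colour substrate. Tested at 10 µM. Higher reads as fewer parasites (inferred from which compounds were picked for retests). About 67,000 compounds were tested under these conditions; 0.38% (about 260) showed 50% or more at least once.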

Values are the deposited “Percent Effect”, in %.
How 0% and 100% were set is not recorded. Most values in the screen are low, and negative values occur.
The compounds are a random part of those screened.

{"compound": "COCCn1cc(NC(=O)NCC(c2cccc(F)c2)N(C)C)cn1", "stereo": "stereo not given", "A": 4.734, "B": -4.959, "C": -19.29, "D": 2.436, "E": -10.99}
{"compound": "Cn1nc(CO)c2c1CCN(c1ncnc3c1CCNCC3)C2", "A": 0.431, "B": 0.5376, "C": -29.82, "D": 3.116, "E": 6.241}
{"compound": "O=C(CCc1ccc(Cl)cc1)N[C@@H]1CC[C@@H](O)[C@@H]1O", "A": 1.695, "B": -3.068, "C": -7.828, "D": -0.07682, "E": 7.83}
{"compound": "Cc1cc(N(C)CC2COc3ccccc3O2)nc(N)n1", "stereo": "stereo not given", "A": 2.381, "B": -0.2463, "C": 0.1762, "D": 2.031, "E": 1.948}
{"compound": "O=C(N[C@@H]1CNCCC[C@H]1O)c1ccc(OCc2ccccc2)cc1", "A": 5.941, "B": -3.991, "C": -28.2, "D": 9.528, "E": -3.784}
{"compound": "COCC(=O)NC[C@H]1CC[C@H](c2nnc(-c3ccncc3)o2)CC1", "A": 2.632, "B": 16.32, "C": -14.47, "D": -3.234, "E": 11.82}
{"compound": "CC[C@@H]1N(Cc2cccnc2)CCC[C@]12CCC(=O)N2C", "A": 3.365, "B": -4.809, "C": -3.317, "D": 2.954}
{"compound": "CCn1ccnc1CN1CCN(CC(O)c2ccccc2)CC1", "stereo": "stereo not given", "A": 2.29, "B": -5.271, "C": -7.593, "D": 4.267, "E": 2.932}
{"compound": "CCCNC(=O)NC(=O)CNC(C)(C)c1ccc2c(c1)OCCO2", "A": 8.14, "B": -6.635, "C": -2.328, "D": 0.1702, "E": -18.54}
{"compound": "CN(Cc1n[nH]c2c1CCC2)C(=O)CCc1cc2n(n1)CCNC2", "A": 3.863, "B": -0.4881, "C": 2.91, "D": -1.539, "E": 18.59}
{"compound": "COCCNC(=O)[C@H]1C[C@@H]2CCN(Cc3ccoc3)C[C@H]2O1", "A": 1.657, "B": 4.272, "C": -18.6, "D": 3.667}
{"compound": "CC(=O)N(Cc1ncc(C)o1)C1CCN(Cc2ccncc2Cl)C1", "stereo": "stereo not given", "A": 0.3774, "B": 0.07819, "C": -13.33, "D": 3.617, "E": -6.202}
{"compound": "Cc1nc2ccnn2c(C)c1CCC(=O)N1CCN2CCCCC2C1", "stereo": "stereo not given", "A": 1.156, "B": -5.598, "C": 6.431, "D": 0.9657, "E": -14.99}
{"compound": "CN1CCOC(c2cncc(CCC(N)=O)n2)C1", "stereo": "stereo not given", "A": 10, "B": -4.552, "C": 8.866, "D": 4.359}
{"compound": "[H][C@@]12CCN(C(=O)c3ccc[nH]3)[C@]1([H])CCC(=O)N2Cc1csc(C)n1", "E": -17.19}
{"compound": "Cc1cc(C(=O)N2CCC(O)(Cn3ccc4ccncc43)CC2)on1", "A": 1.916, "B": 14.02, "C": -27.78, "D": -1.367, "E": 28.28}
{"compound": "CN(C)CCN(Cc1ccccc1)C(=O)CN1CCCNC1=O", "A": 5.435, "B": 0.2018, "C": -26.52, "D": 4.583, "E": -5.947}
{"compound": "[H][C@@]12CC(=O)/C(=C(\\C)NC(=O)c3cccs3)[C@]1([H])C2(C)C", "E": 29.4}
{"compound": "CN(C)C1COC2(CCN(Cc3ccc4c(c3)OCO4)CC2)C1", "stereo": "stereo not given", "A": 1.942, "B": -7.703, "C": -13.25, "D": 3.334}
{"compound": "O=C(O)C(F)(F)F.[H][C@@]12CCN(c3ncccn3)[C@@]1([H])CCN2C(=O)N1CCCC1", "E": -16.61}
{"compound": "O=C(NCCN1CCOCC1)C(OC1CCCC1)c1ccccc1", "stereo": "stereo not given", "A": 0.5128, "B": 0, "C": -11.53, "D": -0.02399, "E": 6.491}
{"compound": "Cn1cc(CN2CCc3c(COCC4CC4)cncc3C2)cn1", "A": 2.97, "B": -0.5622, "C": 2.517, "D": 4.743}

Some entries from above, unchanged:

* O=C(N[C@@H]1CNCCC[C@H]1O)c1ccc(OCc2ccccc2)cc1 | A: 5.941%; B: -3.991%; C: -28.2%; D: 9.528%; E: -3.784%
* [H][C@@]12CC(=O)/C(=C(\C)NC(=O)c3cccs3)[C@]1([H])C2(C)C | E: 29.4%